This is an account of results in patent US20240417469A1.

Sequences of proteins named here, by UniProt entry; tags and fusion partners are left off. A change or cut given only in a name is not applied to a line headed by its entry.
UniProt P07766: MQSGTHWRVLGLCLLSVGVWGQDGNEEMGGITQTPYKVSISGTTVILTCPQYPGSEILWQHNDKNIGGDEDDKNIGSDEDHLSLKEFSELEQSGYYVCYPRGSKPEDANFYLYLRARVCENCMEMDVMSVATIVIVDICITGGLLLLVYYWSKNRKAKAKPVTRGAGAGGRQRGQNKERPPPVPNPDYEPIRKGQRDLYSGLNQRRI
UniProt P04234: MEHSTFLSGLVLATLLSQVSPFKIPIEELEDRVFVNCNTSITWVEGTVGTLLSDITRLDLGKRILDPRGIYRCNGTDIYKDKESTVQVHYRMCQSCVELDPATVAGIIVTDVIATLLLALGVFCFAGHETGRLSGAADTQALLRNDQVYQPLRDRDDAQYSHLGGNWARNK

For this assay, the target named is human CD3 protein (human) (UniProt P07766+P04234). Kind of assay: ELISA. For orientation: An ELISA detects its analyte on a solid surface through an enzyme-linked reagent.

Results are given in words; binding and its absence hold for the method and conditions named. Some binding calls cover weakened binding; strength is not graded here.

B1: Hu155A9B1-13 (antibody, V domains shown)
VH: EVQLQESGPGLVKPSETLSLTCTVSGGSISSYNVHWIRQPPGKGLEWIGRVRYNGDTSYNSALKSRVTISVDTSKNQFSLKLSSVTAADTAVYYCARGPYGGSSEPLFDYWGQGTMVTVSS
VL: DIQMTQSPSSLSASVGDRVTITCKASQNINKYLNWFQQKPGKAPRLLIYTTNNLQTGIPSRFSGSGSGTDFTLTISSLQPEDFATYFCLQHNSGYTFGQGTKLEIK
Consider B1, for which the binding entry is “binds”.

B2: Hu192A7B9-12 (antibody, V domains shown)
VH: EVQLQESGPGLVKPSETLSLTCTVSGFSLTSYNVHWVRQPPGKGLEWMGRMRYNGDTSYNSALKSRLTISRDTSKNQVSLKLSSVTAADTAVYYCTRGPRGGYYSALFDYWGQGTMVTVSS
VL: DIQMTQSPSSLSASVGDRVTITCKASQNINRYLNWYQQKPGKAPKLLISIANSLQTGVPSRFSGSGSGTDFTLTISSLQPEDFATYYCLQHNSWYTFGQGTKLEIK
Consider B2, for which the binding result is given as “binds”.

B3: Hu192A7B9-14 (antibody, V domains shown)
VH: EVQLQESGPGLVKPSETLSLTCTVSGGSISSYNVHWVRQPPGKGLEWIGRMRYNGDTSYNSALKSRVTISRDTSKNQFSLKLSSVTAADTAVYYCARGPRGGYYSALFDYWGQGTMVTVSS
VL: DIQMTQSPSSLSASVGDRVTITCKASQNINRYLNWYQQKPGKAPKLLISIANSLQTGIPSRFSGSGSGTDFTLTISSLQPEDFATYYCLQHNSWYTFGQGTKLEIK
Take B3: the binding result was “binds”.

B4: Hu192A7B9-11 (antibody, V domains shown)
VH: EVQLQESGPGLVKPSETLSLTCTVSGFSISSYNVHWVRQPPGKGLEWMGRMRYNGDTSYNSALKSRLTISRDTSKNQVSLKLSSVTAADTAVYYCTRGPRGGYYSALFDYWGQGTMVTVSS
VL: DIQMTQSPSSLSASVGDRVTITCKASQNINRYLNWYQQKPGKAPKLLISIANSLQTGVPSRFSGSGSGTDFTLTISSLQPEDFATYYCLQHNSWYTFGQGTKLEIK
For the molecule B4, the binding entry is “binds”.

B5: Hu192A7B9-1 (antibody, V domains shown)
VH: EVQLQESGPGLVKPSETLSLTCTVSGGSISSYNVHWIRQPPGKGLEWIGRMRYNGDTSYNSALKSRVTISVDTSKNQFSLKLSSVTAADTAVYYCARGPRGGYYSALFDYWGQGTMVTVSS
VL: DIQMTQSPSSLSASVGDRVTITCKASQNINRYLNWYQQKPGKAPKLLIYIANSLQTGVPSRFSGSGSGTDFTLTISSLQPEDFATYYCLQHNSWYTFGQGTKLEIK
With B5, the binding entry is given as “binds”.

B6: Hu192A7B9-13 (antibody, V domains shown)
VH: EVQLQESGPGLVKPSETLSLTCTVSGGSISSYNVHWIRQPPGKGLEWIGRMRYNGDTSYNSALKSRVTISVDTSKNQFSLKLSSVTAADTAVYYCARGPRGGYYSALFDYWGQGTMVTVSS
VL: DIQMTQSPSSLSASVGDRVTITCKASQNINRYLNWYQQKPGKAPKLLISIANSLQTGIPSRFSGSGSGTDFTLTISSLQPEDFATYYCLQHNSWYTFGQGTKLEIK
As for B6, the binding result was “binds”.

B7: Hu155A9B1-16 (antibody, V domains shown)
VH: EVQLQESGPGLVKPSETLSLTCTVSGGSISSYNVHWVRQPPGKGLEWMGRVRYNGDTSYNSALKSRLTISRDTSKNQFSLKLSSVTAADTAVYYCTRGPYGGSSEPLFDYWGQGTMVTVSS
VL: DIQMTQSPSSLSASVGDRVTITCKASQNINKYLNWFQQKPGKAPRLLIYTTNNLQTGIPSRFSGSGSGTDFTLTISSLQPEDFATYFCLQHNSGYTFGQGTKLEIK
Regarding B7, the binding entry is reported as “binds”.

B8: Hu192A7B9-7 (antibody, V domains shown)
VH: EVQLQESGPGLVKPSETLSLTCTVSGGSISSYNVHWIRQPPGKGLEWIGRMRYNGDTSYNSALKSRVTISVDTSKNQFSLKLSSVTAADTAVYYCARGPRGGYYSALFDYWGQGTMVTVSS
VL: DIQMTQSPSSLSASVGDRVTITCKASQNINRYLNWYQQKPGKAPKLLISIANSLQTGVPSRFSGSGSGTDFTLTISSLQPEDFATYYCLQHNSWYTFGQGTKLEIK
Turning to B8, the binding result is “binds”.

B9: Hu155A9B1-15 (antibody, V domains shown)
VH: EVQLQESGPGLVKPSETLSLTCTVSGGSISSYNVHWVRQPPGKGLEWMGRVRYNGDTSYNSALKSRLTISRDTSKNQFSLKLSSVTAADTAVYYCARGPYGGSSEPLFDYWGQGTMVTVSS
VL: DIQMTQSPSSLSASVGDRVTITCKASQNINKYLNWFQQKPGKAPRLLIYTTNNLQTGIPSRFSGSGSGTDFTLTISSLQPEDFATYFCLQHNSGYTFGQGTKLEIK
As to B9, the binding result is given as “binds”.

B10: Hu192A7B9-10 (antibody, V domains shown)
VH: EVQLQESGPGLVKPSETLSLTCTVSGGSISSYNVHWVRQPPGKGLEWMGRMRYNGDTSYNSALKSRLTISRDTSKNQFSLKLSSVTAADTAVYYCTRGPRGGYYSALFDYWGQGTMVTVSS
VL: DIQMTQSPSSLSASVGDRVTITCKASQNINRYLNWYQQKPGKAPKLLISIANSLQTGVPSRFSGSGSGTDFTLTISSLQPEDFATYYCLQHNSWYTFGQGTKLEIK
For B10, the binding entry is “binds”.

B11: Hu155A9B1-14 (antibody, V domains shown)
VH: EVQLQESGPGLVKPSETLSLTCTVSGGSISSYNVHWVRQPPGKGLEWIGRVRYNGDTSYNSALKSRVTISRDTSKNQFSLKLSSVTAADTAVYYCARGPYGGSSEPLFDYWGQGTMVTVSS
VL: DIQMTQSPSSLSASVGDRVTITCKASQNINKYLNWFQQKPGKAPRLLIYTTNNLQTGIPSRFSGSGSGTDFTLTISSLQPEDFATYFCLQHNSGYTFGQGTKLEIK
As for B11, the binding result was “binds”.

B12: Hu192A7B9-8 (antibody, V domains shown)
VH: EVQLQESGPGLVKPSETLSLTCTVSGGSISSYNVHWVRQPPGKGLEWIGRMRYNGDTSYNSALKSRVTISRDTSKNQFSLKLSSVTAADTAVYYCARGPRGGYYSALFDYWGQGTMVTVSS
VL: DIQMTQSPSSLSASVGDRVTITCKASQNINRYLNWYQQKPGKAPKLLISIANSLQTGVPSRFSGSGSGTDFTLTISSLQPEDFATYYCLQHNSWYTFGQGTKLEIK
For the molecule B12, the binding result is “binds”.

B13: Hu192A7B9-15 (antibody, V domains shown)
VH: EVQLQESGPGLVKPSETLSLTCTVSGGSISSYNVHWVRQPPGKGLEWMGRMRYNGDTSYNSALKSRLTISRDTSKNQFSLKLSSVTAADTAVYYCARGPRGGYYSALFDYWGQGTMVTVSS
VL: DIQMTQSPSSLSASVGDRVTITCKASQNINRYLNWYQQKPGKAPKLLISIANSLQTGIPSRFSGSGSGTDFTLTISSLQPEDFATYYCLQHNSWYTFGQGTKLEIK
In the case of B13, the binding result is on record as “binds”.

B14: Hu192A7B9-4 (antibody, V domains shown)
VH: EVQLQESGPGLVKPSETLSLTCTVSGGSISSYNVHWVRQPPGKGLEWMGRMRYNGDTSYNSALKSRLTISRDTSKNQFSLKLSSVTAADTAVYYCTRGPRGGYYSALFDYWGQGTMVTVSS
VL: DIQMTQSPSSLSASVGDRVTITCKASQNINRYLNWYQQKPGKAPKLLIYIANSLQTGVPSRFSGSGSGTDFTLTISSLQPEDFATYYCLQHNSWYTFGQGTKLEIK
B14: the binding entry is “binds”.

B15: Hu155A9B1-18 (antibody, V domains shown)
VH: EVQLQESGPGLVKPSETLSLTCTVSGFSLTSYNVHWVRQPPGKGLEWMGRVRYNGDTSYNSALKSRLTISRDTSKNQASLKLSSVTAADTAVYYCTRGPYGGSSEPLFDYWGQGTMVTVSS
VL: DIQMTQSPSSLSASVGDRVTITCKASQNINKYLNWFQQKPGKAPRLLIYTTNNLQTGIPSRFSGSGSGTDFTLTISSLQPEDFATYFCLQHNSGYTFGQGTKLEIK
For B15, the binding entry is “binds”.

B16: Hu155A9B1-17 (antibody, V domains shown)
VH: EVQLQESGPGLVKPSETLSLTCTVSGFSISSYNVHWVRQPPGKGLEWMGRVRYNGDTSYNSALKSRLTISRDTSKNQASLKLSSVTAADTAVYYCTRGPYGGSSEPLFDYWGQGTMVTVSS
VL: DIQMTQSPSSLSASVGDRVTITCKASQNINKYLNWFQQKPGKAPRLLIYTTNNLQTGIPSRFSGSGSGTDFTLTISSLQPEDFATYFCLQHNSGYTFGQGTKLEIK
As to B16, the binding result is “binds”.

B17: Hu192A7B9-2 (antibody, V domains shown)
VH: EVQLQESGPGLVKPSETLSLTCTVSGGSISSYNVHWVRQPPGKGLEWIGRMRYNGDTSYNSALKSRVTISRDTSKNQFSLKLSSVTAADTAVYYCARGPRGGYYSALFDYWGQGTMVTVSS
VL: DIQMTQSPSSLSASVGDRVTITCKASQNINRYLNWYQQKPGKAPKLLIYIANSLQTGVPSRFSGSGSGTDFTLTISSLQPEDFATYYCLQHNSWYTFGQGTKLEIK
Regarding B17, the binding entry is recorded as “binds”.

B18: Hu192A7B9-5 (antibody, V domains shown)
VH: EVQLQESGPGLVKPSETLSLTCTVSGFSISSYNVHWVRQPPGKGLEWMGRMRYNGDTSYNSALKSRLTISRDTSKNQVSLKLSSVTAADTAVYYCTRGPRGGYYSALFDYWGQGTMVTVSS
VL: DIQMTQSPSSLSASVGDRVTITCKASQNINRYLNWYQQKPGKAPKLLIYIANSLQTGVPSRFSGSGSGTDFTLTISSLQPEDFATYYCLQHNSWYTFGQGTKLEIK
On to B18, for which the binding result is “binds”.

B19: Hu192A7B9-3 (antibody, V domains shown)
VH: EVQLQESGPGLVKPSETLSLTCTVSGGSISSYNVHWVRQPPGKGLEWMGRMRYNGDTSYNSALKSRLTISRDTSKNQFSLKLSSVTAADTAVYYCARGPRGGYYSALFDYWGQGTMVTVSS
VL: DIQMTQSPSSLSASVGDRVTITCKASQNINRYLNWYQQKPGKAPKLLIYIANSLQTGVPSRFSGSGSGTDFTLTISSLQPEDFATYYCLQHNSWYTFGQGTKLEIK
Consider B19, for which the binding result was “binds”.

B20: Hu192A7B9-6 (antibody, V domains shown)
VH: EVQLQESGPGLVKPSETLSLTCTVSGFSLTSYNVHWVRQPPGKGLEWMGRMRYNGDTSYNSALKSRLTISRDTSKNQVSLKLSSVTAADTAVYYCTRGPRGGYYSALFDYWGQGTMVTVSS
VL: DIQMTQSPSSLSASVGDRVTITCKASQNINRYLNWYQQKPGKAPKLLIYIANSLQTGVPSRFSGSGSGTDFTLTISSLQPEDFATYYCLQHNSWYTFGQGTKLEIK
Turning to B20, the binding result is on record as “binds”.

B21: Hu192A7B9-9 (antibody, V domains shown)
VH: EVQLQESGPGLVKPSETLSLTCTVSGGSISSYNVHWVRQPPGKGLEWMGRMRYNGDTSYNSALKSRLTISRDTSKNQFSLKLSSVTAADTAVYYCARGPRGGYYSALFDYWGQGTMVTVSS
VL: DIQMTQSPSSLSASVGDRVTITCKASQNINRYLNWYQQKPGKAPKLLISIANSLQTGVPSRFSGSGSGTDFTLTISSLQPEDFATYYCLQHNSWYTFGQGTKLEIK
For B21, the binding result is given as “binds”.
